Laboratory results reported in the supplement of paper PMC6411743.
± gives the standard deviation of the averaged measurements. Some of the results follow.

Sequences of proteins named here, by UniProt entry; tags and fusion partners are left off. A change or cut given only in a name is not applied to a line headed by its entry.
UniProt P02792: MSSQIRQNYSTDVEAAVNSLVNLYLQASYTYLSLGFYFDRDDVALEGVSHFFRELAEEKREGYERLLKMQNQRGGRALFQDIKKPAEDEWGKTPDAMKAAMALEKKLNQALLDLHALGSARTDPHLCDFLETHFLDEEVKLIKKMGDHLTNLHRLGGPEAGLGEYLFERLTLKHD
UniProt P05161, whole entry: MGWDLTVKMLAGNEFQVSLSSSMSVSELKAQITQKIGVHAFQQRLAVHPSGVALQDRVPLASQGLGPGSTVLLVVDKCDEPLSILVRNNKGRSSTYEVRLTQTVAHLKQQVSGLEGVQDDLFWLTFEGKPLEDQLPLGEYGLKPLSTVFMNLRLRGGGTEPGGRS
UniProt Q6ZRS2, whole entry, looked up: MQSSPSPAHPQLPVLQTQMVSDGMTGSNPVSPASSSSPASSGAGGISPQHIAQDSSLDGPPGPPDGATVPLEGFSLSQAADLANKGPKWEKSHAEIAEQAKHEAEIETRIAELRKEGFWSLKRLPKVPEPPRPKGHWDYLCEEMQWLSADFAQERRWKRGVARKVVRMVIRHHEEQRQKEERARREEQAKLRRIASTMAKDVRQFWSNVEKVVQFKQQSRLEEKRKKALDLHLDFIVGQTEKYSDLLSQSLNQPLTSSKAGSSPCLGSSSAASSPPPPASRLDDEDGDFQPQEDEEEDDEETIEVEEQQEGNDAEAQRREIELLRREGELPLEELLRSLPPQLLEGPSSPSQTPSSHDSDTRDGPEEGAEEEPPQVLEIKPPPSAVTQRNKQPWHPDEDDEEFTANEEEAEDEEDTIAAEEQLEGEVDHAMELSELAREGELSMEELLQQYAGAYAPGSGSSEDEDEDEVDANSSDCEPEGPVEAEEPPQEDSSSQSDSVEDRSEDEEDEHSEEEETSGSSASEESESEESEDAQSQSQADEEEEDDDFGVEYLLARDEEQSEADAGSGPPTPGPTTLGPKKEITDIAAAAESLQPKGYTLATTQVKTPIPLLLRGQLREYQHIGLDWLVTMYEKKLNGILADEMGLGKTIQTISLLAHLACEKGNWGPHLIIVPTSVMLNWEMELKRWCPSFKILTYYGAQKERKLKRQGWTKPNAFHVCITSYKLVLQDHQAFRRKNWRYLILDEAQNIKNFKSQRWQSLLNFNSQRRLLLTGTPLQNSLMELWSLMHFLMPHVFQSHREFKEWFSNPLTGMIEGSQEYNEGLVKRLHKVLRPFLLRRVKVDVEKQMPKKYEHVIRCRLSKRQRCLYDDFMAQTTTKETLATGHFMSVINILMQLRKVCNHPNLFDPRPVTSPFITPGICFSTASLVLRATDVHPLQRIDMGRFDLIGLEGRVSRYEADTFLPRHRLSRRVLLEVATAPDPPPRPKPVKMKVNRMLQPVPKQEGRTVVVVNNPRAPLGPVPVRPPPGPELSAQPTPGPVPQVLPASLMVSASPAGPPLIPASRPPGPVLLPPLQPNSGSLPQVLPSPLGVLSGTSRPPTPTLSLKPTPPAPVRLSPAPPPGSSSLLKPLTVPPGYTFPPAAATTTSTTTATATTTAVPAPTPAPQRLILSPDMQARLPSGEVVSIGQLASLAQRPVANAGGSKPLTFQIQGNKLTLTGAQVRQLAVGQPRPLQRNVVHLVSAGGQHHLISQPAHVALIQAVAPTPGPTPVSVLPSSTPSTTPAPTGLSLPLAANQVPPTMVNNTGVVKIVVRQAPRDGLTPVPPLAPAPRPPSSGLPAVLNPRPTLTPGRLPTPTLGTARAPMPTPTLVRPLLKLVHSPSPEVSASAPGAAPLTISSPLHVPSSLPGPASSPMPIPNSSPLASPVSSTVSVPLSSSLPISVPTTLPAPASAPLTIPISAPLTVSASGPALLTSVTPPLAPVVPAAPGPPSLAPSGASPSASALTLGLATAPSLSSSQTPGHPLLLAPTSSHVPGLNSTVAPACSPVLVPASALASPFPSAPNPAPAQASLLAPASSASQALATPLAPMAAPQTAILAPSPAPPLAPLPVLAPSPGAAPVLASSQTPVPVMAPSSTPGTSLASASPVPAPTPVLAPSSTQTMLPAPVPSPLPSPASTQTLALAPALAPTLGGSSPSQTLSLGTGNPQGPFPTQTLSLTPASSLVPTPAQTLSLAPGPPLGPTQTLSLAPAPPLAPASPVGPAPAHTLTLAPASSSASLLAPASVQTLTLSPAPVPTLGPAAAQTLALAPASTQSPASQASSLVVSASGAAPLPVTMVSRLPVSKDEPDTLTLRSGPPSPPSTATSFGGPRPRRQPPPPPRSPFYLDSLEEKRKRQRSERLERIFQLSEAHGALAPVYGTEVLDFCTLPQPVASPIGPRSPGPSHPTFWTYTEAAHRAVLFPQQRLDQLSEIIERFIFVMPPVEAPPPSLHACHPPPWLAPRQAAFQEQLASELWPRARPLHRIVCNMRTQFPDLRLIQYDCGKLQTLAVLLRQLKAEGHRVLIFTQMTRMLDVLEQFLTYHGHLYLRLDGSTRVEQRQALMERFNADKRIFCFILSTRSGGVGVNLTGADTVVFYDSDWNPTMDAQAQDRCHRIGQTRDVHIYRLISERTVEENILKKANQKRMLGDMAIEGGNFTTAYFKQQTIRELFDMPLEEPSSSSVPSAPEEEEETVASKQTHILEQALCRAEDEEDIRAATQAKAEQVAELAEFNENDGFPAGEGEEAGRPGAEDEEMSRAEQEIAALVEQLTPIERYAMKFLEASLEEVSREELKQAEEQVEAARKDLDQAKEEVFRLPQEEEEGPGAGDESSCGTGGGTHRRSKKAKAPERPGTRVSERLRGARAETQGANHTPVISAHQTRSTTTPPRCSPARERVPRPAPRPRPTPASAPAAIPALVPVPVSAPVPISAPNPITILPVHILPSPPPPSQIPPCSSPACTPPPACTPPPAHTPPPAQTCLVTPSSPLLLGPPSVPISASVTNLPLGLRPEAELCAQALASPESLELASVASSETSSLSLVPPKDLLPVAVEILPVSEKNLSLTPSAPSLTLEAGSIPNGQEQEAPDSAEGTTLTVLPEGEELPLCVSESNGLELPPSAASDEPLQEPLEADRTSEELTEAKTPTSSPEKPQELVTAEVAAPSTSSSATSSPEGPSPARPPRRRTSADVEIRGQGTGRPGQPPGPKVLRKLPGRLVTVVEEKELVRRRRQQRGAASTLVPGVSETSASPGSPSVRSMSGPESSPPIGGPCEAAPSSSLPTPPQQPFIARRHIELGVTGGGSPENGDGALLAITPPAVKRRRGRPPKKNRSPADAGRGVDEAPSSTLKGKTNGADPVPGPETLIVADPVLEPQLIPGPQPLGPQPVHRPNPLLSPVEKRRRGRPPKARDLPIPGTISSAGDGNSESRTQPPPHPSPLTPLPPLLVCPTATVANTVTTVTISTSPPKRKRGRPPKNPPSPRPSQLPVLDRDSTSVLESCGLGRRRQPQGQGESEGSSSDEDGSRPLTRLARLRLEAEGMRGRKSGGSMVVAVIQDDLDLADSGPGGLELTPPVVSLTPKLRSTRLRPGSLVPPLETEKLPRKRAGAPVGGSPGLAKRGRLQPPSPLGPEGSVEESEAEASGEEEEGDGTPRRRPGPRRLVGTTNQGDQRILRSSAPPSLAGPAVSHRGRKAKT
UniProt Q9Y2D4: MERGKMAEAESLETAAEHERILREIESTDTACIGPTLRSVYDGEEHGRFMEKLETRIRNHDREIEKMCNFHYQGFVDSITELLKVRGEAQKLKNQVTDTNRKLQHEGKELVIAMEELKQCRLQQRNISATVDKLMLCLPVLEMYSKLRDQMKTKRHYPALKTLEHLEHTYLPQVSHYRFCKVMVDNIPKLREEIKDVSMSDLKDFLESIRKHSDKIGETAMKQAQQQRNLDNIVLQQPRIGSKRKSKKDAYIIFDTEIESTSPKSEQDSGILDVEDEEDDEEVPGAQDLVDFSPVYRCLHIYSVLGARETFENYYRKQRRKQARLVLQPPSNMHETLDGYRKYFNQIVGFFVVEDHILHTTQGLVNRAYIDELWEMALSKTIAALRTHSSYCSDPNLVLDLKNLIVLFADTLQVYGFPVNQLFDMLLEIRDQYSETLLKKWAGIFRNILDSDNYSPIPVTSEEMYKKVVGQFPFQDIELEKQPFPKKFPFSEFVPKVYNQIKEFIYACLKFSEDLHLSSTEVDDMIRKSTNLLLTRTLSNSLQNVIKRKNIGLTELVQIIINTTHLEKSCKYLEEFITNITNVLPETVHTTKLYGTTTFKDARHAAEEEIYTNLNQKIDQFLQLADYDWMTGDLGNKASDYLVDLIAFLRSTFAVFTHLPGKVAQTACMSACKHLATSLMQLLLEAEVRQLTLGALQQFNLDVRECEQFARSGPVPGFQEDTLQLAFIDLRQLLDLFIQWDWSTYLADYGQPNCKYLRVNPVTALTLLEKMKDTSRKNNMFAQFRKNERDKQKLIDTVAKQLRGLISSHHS
UniProt Q53H96: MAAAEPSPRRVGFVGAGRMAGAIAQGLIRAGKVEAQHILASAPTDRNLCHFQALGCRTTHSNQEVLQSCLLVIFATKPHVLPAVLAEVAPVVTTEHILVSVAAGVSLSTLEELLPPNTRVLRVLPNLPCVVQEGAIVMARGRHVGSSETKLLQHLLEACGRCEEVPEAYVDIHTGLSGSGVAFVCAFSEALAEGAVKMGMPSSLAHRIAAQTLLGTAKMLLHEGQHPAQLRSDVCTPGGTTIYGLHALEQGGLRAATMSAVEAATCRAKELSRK
UniProt Q9Y4E1, whole entry: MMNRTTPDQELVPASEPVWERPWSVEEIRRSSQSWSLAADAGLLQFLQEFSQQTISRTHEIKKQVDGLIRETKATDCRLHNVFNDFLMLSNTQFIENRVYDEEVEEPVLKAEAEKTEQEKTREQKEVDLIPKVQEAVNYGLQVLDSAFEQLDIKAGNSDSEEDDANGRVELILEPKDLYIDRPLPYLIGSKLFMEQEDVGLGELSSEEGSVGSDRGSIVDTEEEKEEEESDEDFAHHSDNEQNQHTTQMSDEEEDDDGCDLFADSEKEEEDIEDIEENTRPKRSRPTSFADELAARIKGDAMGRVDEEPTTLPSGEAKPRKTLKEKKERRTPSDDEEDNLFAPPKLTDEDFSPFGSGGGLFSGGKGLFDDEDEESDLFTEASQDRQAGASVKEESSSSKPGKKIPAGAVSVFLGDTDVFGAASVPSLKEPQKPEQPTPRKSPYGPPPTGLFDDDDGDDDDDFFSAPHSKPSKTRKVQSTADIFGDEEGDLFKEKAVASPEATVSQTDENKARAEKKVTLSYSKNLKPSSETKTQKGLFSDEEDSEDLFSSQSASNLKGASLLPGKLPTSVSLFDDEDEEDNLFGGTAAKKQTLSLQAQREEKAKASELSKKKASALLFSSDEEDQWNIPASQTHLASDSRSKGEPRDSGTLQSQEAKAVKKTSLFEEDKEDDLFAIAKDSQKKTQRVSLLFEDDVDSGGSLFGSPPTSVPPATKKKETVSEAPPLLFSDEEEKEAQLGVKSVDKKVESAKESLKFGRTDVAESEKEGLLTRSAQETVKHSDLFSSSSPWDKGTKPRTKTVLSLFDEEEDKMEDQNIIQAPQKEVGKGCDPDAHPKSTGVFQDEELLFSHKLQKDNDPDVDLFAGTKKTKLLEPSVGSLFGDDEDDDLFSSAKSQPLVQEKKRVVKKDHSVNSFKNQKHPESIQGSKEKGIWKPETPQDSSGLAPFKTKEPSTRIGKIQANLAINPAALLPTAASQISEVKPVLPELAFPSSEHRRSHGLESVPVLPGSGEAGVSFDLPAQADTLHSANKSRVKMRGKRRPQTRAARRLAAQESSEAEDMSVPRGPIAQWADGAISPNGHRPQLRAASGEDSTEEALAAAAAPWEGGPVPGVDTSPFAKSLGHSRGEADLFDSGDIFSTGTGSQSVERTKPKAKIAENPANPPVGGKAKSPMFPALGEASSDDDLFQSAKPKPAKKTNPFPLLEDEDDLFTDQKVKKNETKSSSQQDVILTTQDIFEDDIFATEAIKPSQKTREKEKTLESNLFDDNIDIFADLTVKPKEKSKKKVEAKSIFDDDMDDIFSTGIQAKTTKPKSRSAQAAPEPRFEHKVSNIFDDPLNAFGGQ
UniProt Q6GTX8: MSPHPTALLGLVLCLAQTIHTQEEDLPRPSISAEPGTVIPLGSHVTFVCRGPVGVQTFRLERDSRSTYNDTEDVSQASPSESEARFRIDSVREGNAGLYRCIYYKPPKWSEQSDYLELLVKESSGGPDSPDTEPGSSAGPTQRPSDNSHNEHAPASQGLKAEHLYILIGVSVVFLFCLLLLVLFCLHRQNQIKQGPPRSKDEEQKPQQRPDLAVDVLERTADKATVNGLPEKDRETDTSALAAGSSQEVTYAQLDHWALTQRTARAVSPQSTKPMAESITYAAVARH
UniProt P52657, whole entry: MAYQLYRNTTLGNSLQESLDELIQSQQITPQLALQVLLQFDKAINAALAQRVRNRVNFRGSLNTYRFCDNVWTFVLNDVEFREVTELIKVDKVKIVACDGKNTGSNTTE
UniProt P01850: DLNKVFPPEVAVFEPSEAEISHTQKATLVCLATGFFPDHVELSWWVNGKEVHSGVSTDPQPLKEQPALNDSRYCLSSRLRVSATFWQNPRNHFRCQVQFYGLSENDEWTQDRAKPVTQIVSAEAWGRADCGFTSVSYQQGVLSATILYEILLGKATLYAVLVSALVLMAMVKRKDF

Compound: Nc1nc2c(ncn2[C@@H]2O[C@H](COP(=O)(O)OP(=O)(O)OP(=O)(O)O)[C@@H](O)[C@H]2O)c(=O)[nH]1 [guanosine triphosphate]
Assay: NP40-soluble protein abundance relative to vehicle (solubility fold change) (ratio); higher = more soluble protein in presence of GTP
Method in brief: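 Values are fold changes against the detergent-processed vehicle, based on vsn-normalised intensities. Jurkat crude lysate was treated at eight concentrations from 0.1 to 10 mM (10 min at room temperature, then 3 min at 37 °C), solubilised with 0.8% NP40 and benzonase, ultracentrifuged and analysed by TMT-labelled LC-MS/MS over three independent experiments.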

Target	NP40-soluble protein abundance (concentration: 0.1mM)	NP40-soluble protein abundance (concentration: 0.5mM)	NP40-soluble protein abundance (concentration: 1mM)	NP40-soluble protein abundance (concentration: 2mM)	NP40-soluble protein abundance (concentration: 4mM)	NP40-soluble protein abundance (concentration: 6mM)	NP40-soluble protein abundance (concentration: 8mM)	NP40-soluble protein abundance (concentration: 10mM)
A0A087WY71|Q96CW1 and related entries (UniProt Q96CW1)	1.09 ± 0.11	1.12 ± 0.17	0.947 ± 0.078	1.04 ± 0.16	1.04 ± 0.14	1.03 ± 0.13	0.941 ± 0.023	0.95 ± 0.09
A0A087WXM6|A0A0A6YYL6|J3KRX5 and related entries (UniProt P18621)	0.938 ± 0.04	1.02 ± 0.073	1.02 ± 0.11	0.933 ± 0.11	0.877 ± 0.15	0.876 ± 0.15	0.771 ± 0.16	0.867 ± 0.14
A0A0A0MSB4|Q6ZN50 and related entries (UniProt Q969R2)	1.08 ± 0.1	1.01 ± 0.045	1.15 ± 0.11	1.03 ± 0.081	1.05 ± 0.092	1.07 ± 0.073	1.08 ± 0.06	0.953 ± 0.062
A0A0C4DG21|B7Z836 and related entries (UniProt Q9NYB9)	0.932 ± 0.033	0.925 ± 0.037	1 ± 0.024	1 ± 0.067	0.971 ± 0.042	1.01 ± 0.046	1.01 ± 0.032	1.06 ± 0.086
A0A0C4DGS5|Q08379 and related entries (UniProt Q08379)	0.924 ± 0.011	0.935 ± 0.062	0.998 ± 0.08	0.969 ± 0.1	0.943 ± 0.068	0.976 ± 0.09	1.01 ± 0.047	1.05 ± 0.065
UniProt A2RRP1	1.08 ± 0.046	1.1 ± 0.14	1.01 ± 0.087	1.05 ± 0.14	1.06 ± 0.1	1.05 ± 0.13	1.01 ± 0.079	0.979 ± 0.11
A0A087X1B9|P02792 (UniProt P02792)	1.09 ± 0.16	1.03 ± 0.21	1.44 ± 0.11	1.55 ± 0.054	1.64 ± 0.14	1.465 ± 0.0048	1.43 ± 0.17	1.68 ± 0.12
A0A0C4DGA2|O75521 and related entries (UniProt O75521)	0.984 ± 0.025	0.995 ± 0.045	0.971 ± 0.022	0.962 ± 0.046	0.926 ± 0.025	0.964 ± 0.033	0.966 ± 0.039	0.951 ± 0.021
A0A096LNZ9|A0A096LPJ4|P05161 (UniProt P05161)	0.9514 ± 0.0057	0.961 ± 0.023	0.899 ± 0.019	0.888 ± 0.02	0.869 ± 0.026	0.885 ± 0.035	0.83 ± 0.034	0.836 ± 0.034
A0A0B4J2C3|P13693 and related entries (UniProt P13693)	0.938 ± 0.073	0.961 ± 0.039	0.928 ± 0.067	0.905 ± 0.035	0.882 ± 0.074	0.905 ± 0.047	0.864 ± 0.086	0.871 ± 0.062
A0A0C4DFX4|Q6ZRS2 and related entries (UniProt Q6ZRS2)	1.12 ± 0.075	1.11 ± 0.013	1.3 ± 0.042	1.44 ± 0.17	1.6 ± 0.21	1.62 ± 0.17	1.86 ± 0.33	1.83 ± 0.29
A0A0A0MTS7|Q8WZ42-12 (UniProt Q8WZ42)	1.06 ± 0.045	1.02 ± 0.074	0.994 ± 0.029	0.969 ± 0.022	0.951 ± 0.063	0.982 ± 0.055	0.978 ± 0.058	0.922 ± 0.068
A0A087WZN1|O43837 (UniProt O43837)	0.977 ± 0.037	1.02 ± 0.047	0.91 ± 0.039	0.925 ± 0.028	0.898 ± 0.024	0.893 ± 0.033	0.861 ± 0.048	0.87 ± 0.033
A0A0U1RRB6|Q9Y2D4 (UniProt Q9Y2D4)	1.02 ± 0.058	1.01 ± 0.054	0.991 ± 0.048	0.969 ± 0.061	0.968 ± 0.039	0.985 ± 0.036	0.953 ± 0.031	0.911 ± 0.082
A0A0A0MQS1|Q53H96 and related entries (UniProt Q53H96)	1.08 ± 0.071	1.07 ± 0.077	1.19 ± 0.11	1.2 ± 0.072	1.2 ± 0.074	1.21 ± 0.079	1.22 ± 0.065	1.17 ± 0.06
A0A0A6YYD5|A0A0B4J2E0|A0A5A8 and related entries (UniProt P01733+A0A5A8)	1.07 ± 0.072	1.04 ± 0.029	1.06 ± 0.042	1.03 ± 0.023	1.05 ± 0.072	1.05 ± 0.068	1.11 ± 0.054	1.01 ± 0.045
A2RUF3 and related entries (UniProt O75044)	1.05 ± 0.029	1.07 ± 0.017	1.04 ± 0.047	1.03 ± 0.027	0.992 ± 0.081	1.02 ± 0.045	1 ± 0.08	0.998 ± 0.036
A0A096LPC5|Q9Y4E1 and related entries (UniProt Q9Y4E1)	0.947 ± 0.018	1.04 ± 0.057	1.073 ± 0.0097	1.02 ± 0.041	0.941 ± 0.017	0.9589 ± 0.0072	1.06 ± 0.04	1.04 ± 0.041
A0A0G2JLV7|A0A0G2JMI0|A0A0G2JNK8|A0A0G2JNU6|A0A0G2JP18|A0A0G2JQ50|A0A140T8W3|A8MZ84 and related entries (UniProt Q6GTX8)	0.867 ± 0.023	0.858 ± 0.035	0.95 ± 0.056	0.942 ± 0.11	0.9 ± 0.084	0.935 ± 0.068	0.889 ± 0.051	0.979 ± 0.097
A0A0A0MSB8|Q9UPT5-6 (UniProt Q9UPT5)	0.973 ± 0.037	0.964 ± 0.05	0.974 ± 0.06	0.964 ± 0.039	0.949 ± 0.035	0.936 ± 0.039	0.971 ± 0.043	0.928 ± 0.037
A0A0B4J1Z5|P52657 (UniProt P52657)	0.915 ± 0.12	0.821 ± 0.12	1 ± 0.12	1.01 ± 0.1	1 ± 0.066	0.968 ± 0.084	0.933 ± 0.14	1.04 ± 0.15
A0A0J9YWD5|A0A0J9YYB5|B7ZM65 and related entries (UniProt Q9P1Y6)	0.941 ± 0.075	0.94 ± 0.049	0.981 ± 0.045	1.02 ± 0.08	1.23 ± 0.14	1.15 ± 0.15	1.27 ± 0.22	1.25 ± 0.21
A0A087WZV8|A0A0G2JN66 (UniProt P01850)	1.02 ± 0.032	1.04 ± 0.034	1.002 ± 0.0081	1.01 ± 0.042	1.01 ± 0.036	0.98 ± 0.023	0.977 ± 0.04	0.976 ± 0.046
A0A0D9SFS3|P0619_C466|P0619_N466|Q02218 (UniProt Q02218)	1.11 ± 0.087	1.18 ± 0.14	1.15 ± 0.14	1.21 ± 0.19	1.23 ± 0.21	1.19 ± 0.22	1.19 ± 0.19	1.15 ± 0.16

2 records picked at random from those above, as already listed:
Target	NP40-soluble protein abundance (concentration: 0.1mM)	NP40-soluble protein abundance (concentration: 0.5mM)	NP40-soluble protein abundance (concentration: 1mM)	NP40-soluble protein abundance (concentration: 2mM)	NP40-soluble protein abundance (concentration: 4mM)	NP40-soluble protein abundance (concentration: 6mM)	NP40-soluble protein abundance (concentration: 8mM)	NP40-soluble protein abundance (concentration: 10mM)
A0A0A0MSB4|Q6ZN50 and related entries (UniProt Q969R2)	1.08 ± 0.1	1.01 ± 0.045	1.15 ± 0.11	1.03 ± 0.081	1.05 ± 0.092	1.07 ± 0.073	1.08 ± 0.06	0.953 ± 0.062
A0A0A0MTS7|Q8WZ42-12 (UniProt Q8WZ42)	1.06 ± 0.045	1.02 ± 0.074	0.994 ± 0.029	0.969 ± 0.022	0.951 ± 0.063	0.982 ± 0.055	0.978 ± 0.058	0.922 ± 0.068
